From paper PMC5344418, “Directed evolution of a soluble human DR3 receptor for the inhibition of TL1A induced cytokine secretion” (PLoS ONE, 2017)
Results are given in words; binding and its absence hold for the method and conditions named. Some entries that bind do so weakly or less than the wild type. Where a sequence is shown, tags or fusion partners need not be part of it. Each block holds one binder with its values, some of them ahead of it.

Tests used:
TL1A (Abcam) [1] = biological target: T1, TL1A (Abcam) (UniProt O95150); assay: ELISA; plate coated with monoclonal mouse anti-TL1A antibody, then 0.6 ug/ml TL1A (Abcam); 100 ul medium of transfected HEK293T cells (48 or 72 h) added; detected with biotinylated goat anti-DR3 antibodies and streptavidin-peroxidase; only the target purified
T1 sequence: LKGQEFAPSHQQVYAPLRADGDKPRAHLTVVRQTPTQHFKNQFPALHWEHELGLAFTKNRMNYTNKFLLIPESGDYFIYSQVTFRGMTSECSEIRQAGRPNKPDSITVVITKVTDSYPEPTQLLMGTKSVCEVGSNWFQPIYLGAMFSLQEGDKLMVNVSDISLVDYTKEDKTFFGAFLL

TL1A (Abcam) [2] = biological target: T1, TL1A (Abcam); assay: ELISA; plate coated with monoclonal mouse anti-TL1A antibody, then 0.6 ug/ml TL1A (Abcam); bought DR3-Fc (R&D Systems) added (2 ug/ml as positive control; five concentrations for the calibration curve); detected with biotinylated goat anti-DR3 antibodies and streptavidin-peroxidase; both purified

binding (TL1A (Abcam) [1]): binds
B1: native DR3-Fc (human DR3 extracellular domain fused with human IgG1 Fc) (Fc fusion, UniProt Q93038 25-199, looked up)
chain: QGGTRSPRCDCAGDFHKKIGLFCCRGCPAGHYLKAPCTEPCGNSTCLVCPQDTFLAWENHHNSECARCQACDEQASQVALENCSAVADTRCGCKPGWFVECQVSQCVSSSPFYCQPCLDCGALHRHTRLLCSRRDTDCGTCLPGFYEHGDGCVSCPTSTLGSCPERCAAVCGWRQ
modifications: N-linked glycosylation (shown by Endo-H cleavage)
notes: amplified from an EST cDNA clone (Open Biosystems); pFUSE vector (Invivogen); also called WT; soluble native DR3; source: HEK293T, transfected, conditioned medium (ELISA screen); 293F (HEK293F), transfected, purified (MonoQ, SP, butyl HIC); not shown: Fc (human IgG1), C-terminal, kept

binding (TL1A (Abcam) [2]): binds
B2: DR3-Fc (R&D Systems) (Fc fusion, UniProt Q93038 25-199)
chain: B1 chain
